Test results published in the supplement of paper PMC10849652.
This is one part of the list.

By UniProt entry, the sequences of proteins in these tests, tags left out. Where a name states a change or a piece, a line headed by the entry shows the natural chain unless it says otherwise.
UniProt P53985: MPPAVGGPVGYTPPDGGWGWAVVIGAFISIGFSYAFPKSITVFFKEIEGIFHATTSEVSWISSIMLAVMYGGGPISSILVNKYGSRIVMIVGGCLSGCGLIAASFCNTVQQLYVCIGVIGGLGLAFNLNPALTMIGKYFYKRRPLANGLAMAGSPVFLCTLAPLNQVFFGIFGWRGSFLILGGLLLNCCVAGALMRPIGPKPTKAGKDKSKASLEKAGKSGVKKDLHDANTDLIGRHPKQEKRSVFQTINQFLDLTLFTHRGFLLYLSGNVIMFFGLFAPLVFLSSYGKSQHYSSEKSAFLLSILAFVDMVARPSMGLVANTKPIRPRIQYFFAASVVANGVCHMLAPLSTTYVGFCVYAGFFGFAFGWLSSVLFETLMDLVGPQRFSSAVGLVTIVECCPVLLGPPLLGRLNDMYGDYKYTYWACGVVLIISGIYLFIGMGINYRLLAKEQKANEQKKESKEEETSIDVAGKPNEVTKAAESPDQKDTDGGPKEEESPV
UniProt Q9NRX5: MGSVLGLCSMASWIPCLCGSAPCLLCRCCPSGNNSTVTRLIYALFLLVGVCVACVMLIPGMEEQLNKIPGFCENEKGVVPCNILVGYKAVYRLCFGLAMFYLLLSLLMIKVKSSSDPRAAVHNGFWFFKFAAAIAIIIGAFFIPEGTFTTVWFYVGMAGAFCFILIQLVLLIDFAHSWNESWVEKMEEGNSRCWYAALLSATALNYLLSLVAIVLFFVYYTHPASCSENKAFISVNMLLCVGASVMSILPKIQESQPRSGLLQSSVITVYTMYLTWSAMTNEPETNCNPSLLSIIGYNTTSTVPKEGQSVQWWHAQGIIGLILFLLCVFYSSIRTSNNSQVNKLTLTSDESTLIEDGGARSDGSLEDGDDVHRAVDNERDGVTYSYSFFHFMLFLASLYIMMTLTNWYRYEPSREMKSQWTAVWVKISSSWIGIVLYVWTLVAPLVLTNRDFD
UniProt O75368: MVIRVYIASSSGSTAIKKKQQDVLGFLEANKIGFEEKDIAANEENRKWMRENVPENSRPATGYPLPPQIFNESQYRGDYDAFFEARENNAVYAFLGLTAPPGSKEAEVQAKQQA
UniProt P55822: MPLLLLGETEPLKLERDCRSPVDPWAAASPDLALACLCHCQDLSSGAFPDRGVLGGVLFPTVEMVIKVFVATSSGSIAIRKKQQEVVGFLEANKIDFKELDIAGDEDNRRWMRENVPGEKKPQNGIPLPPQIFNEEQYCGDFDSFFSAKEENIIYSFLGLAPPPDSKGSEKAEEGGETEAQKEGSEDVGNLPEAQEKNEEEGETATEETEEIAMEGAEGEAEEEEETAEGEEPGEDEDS
UniProt O75533, whole entry, looked up: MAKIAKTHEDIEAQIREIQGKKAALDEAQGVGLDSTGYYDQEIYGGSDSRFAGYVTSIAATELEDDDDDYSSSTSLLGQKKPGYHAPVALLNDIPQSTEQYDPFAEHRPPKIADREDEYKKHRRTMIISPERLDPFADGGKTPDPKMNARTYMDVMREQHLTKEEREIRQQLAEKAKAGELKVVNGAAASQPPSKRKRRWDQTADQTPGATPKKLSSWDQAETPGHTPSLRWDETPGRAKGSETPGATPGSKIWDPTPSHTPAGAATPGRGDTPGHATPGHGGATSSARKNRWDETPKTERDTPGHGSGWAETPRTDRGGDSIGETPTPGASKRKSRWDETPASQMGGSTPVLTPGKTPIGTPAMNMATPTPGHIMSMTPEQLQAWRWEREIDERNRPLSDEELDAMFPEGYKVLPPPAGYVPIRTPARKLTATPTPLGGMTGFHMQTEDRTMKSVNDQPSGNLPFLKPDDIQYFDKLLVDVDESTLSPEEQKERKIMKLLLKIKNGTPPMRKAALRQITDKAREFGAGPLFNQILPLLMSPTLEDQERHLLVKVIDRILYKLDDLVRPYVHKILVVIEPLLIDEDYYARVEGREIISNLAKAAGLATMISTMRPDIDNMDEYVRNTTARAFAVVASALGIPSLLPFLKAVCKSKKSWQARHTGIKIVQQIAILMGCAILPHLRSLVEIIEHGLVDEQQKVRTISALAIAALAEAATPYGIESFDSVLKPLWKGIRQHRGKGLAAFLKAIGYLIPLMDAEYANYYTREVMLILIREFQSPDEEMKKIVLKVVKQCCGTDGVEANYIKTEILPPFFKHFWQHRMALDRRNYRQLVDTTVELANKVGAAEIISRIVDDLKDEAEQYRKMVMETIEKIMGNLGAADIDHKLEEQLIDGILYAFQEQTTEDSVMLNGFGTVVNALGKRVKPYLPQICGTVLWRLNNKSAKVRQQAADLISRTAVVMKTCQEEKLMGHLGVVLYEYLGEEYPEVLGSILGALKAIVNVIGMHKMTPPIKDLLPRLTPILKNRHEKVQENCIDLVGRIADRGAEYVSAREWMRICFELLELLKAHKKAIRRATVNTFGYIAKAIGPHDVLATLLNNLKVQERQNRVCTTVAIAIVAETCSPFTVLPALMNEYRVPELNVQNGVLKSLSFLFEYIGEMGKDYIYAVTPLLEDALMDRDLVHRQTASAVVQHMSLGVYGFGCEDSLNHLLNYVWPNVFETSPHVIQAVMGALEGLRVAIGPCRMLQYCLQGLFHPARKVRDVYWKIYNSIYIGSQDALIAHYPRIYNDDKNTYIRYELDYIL
UniProt Q96EB6: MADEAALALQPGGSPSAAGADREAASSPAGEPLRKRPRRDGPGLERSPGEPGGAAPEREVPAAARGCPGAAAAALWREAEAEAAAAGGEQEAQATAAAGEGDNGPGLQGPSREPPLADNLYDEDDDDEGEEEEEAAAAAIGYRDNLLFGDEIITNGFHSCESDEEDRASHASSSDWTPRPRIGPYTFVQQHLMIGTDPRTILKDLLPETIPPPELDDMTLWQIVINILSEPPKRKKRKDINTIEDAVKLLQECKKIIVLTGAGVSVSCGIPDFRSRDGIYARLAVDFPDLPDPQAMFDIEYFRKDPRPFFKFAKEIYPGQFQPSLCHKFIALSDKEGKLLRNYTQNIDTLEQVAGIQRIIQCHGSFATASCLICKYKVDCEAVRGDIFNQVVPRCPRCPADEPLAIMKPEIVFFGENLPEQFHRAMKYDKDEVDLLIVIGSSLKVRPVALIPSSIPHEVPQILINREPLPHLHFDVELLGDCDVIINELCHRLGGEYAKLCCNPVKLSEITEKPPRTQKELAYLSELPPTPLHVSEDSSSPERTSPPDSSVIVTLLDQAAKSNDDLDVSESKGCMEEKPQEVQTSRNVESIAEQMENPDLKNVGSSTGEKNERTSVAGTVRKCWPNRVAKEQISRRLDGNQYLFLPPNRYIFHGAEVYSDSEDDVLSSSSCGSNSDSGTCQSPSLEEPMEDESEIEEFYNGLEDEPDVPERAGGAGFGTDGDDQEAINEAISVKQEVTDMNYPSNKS
UniProt Q13530: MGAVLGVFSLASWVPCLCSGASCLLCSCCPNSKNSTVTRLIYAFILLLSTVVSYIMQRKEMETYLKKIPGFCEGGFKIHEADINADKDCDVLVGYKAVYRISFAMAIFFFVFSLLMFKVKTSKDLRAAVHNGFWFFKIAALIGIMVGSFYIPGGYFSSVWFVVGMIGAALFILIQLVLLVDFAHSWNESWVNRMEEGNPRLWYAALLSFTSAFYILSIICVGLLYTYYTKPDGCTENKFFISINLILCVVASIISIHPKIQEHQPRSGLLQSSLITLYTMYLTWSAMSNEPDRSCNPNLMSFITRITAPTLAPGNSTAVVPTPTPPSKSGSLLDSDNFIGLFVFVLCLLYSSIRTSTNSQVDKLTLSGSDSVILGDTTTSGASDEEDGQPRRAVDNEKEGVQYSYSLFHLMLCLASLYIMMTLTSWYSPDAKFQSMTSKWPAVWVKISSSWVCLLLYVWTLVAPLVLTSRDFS
UniProt Q99720, whole entry, looked up: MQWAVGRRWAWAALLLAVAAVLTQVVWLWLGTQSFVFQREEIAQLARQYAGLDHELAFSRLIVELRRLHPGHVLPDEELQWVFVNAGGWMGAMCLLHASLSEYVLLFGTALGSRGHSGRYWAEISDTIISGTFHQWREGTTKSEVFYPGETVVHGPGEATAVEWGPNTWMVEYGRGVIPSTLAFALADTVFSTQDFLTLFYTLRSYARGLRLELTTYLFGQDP
UniProt Q9H9B4: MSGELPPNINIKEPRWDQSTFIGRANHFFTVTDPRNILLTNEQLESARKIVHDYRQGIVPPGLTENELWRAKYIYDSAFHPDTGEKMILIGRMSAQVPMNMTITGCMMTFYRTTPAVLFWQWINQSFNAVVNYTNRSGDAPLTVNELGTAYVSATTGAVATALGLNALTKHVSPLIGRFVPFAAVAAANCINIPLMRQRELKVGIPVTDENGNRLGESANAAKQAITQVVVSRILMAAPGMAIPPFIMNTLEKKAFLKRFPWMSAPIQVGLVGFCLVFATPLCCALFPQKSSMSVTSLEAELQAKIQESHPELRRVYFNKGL
UniProt Q13435: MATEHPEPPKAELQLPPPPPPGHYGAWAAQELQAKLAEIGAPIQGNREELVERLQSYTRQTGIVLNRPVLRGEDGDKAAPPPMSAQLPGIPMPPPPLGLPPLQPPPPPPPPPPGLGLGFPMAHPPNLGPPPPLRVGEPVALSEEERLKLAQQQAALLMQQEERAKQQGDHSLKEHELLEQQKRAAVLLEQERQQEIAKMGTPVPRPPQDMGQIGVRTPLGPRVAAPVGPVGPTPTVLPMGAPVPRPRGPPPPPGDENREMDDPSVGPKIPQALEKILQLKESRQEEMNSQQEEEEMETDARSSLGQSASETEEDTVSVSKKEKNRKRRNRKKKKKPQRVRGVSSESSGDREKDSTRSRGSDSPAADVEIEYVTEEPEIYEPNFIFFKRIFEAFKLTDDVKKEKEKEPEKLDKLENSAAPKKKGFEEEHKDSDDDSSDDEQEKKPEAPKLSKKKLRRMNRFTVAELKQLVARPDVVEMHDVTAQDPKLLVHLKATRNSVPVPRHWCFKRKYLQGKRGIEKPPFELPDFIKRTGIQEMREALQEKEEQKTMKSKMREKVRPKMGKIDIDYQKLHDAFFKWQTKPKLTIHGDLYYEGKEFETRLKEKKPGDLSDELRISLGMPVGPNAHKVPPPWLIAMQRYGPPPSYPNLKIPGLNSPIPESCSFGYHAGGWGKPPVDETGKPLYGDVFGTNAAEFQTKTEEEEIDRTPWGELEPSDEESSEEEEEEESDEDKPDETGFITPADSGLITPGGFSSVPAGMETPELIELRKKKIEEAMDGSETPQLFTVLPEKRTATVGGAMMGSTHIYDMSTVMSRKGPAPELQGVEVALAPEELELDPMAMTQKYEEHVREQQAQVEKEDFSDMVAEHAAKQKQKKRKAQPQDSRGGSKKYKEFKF
UniProt Q9Y371: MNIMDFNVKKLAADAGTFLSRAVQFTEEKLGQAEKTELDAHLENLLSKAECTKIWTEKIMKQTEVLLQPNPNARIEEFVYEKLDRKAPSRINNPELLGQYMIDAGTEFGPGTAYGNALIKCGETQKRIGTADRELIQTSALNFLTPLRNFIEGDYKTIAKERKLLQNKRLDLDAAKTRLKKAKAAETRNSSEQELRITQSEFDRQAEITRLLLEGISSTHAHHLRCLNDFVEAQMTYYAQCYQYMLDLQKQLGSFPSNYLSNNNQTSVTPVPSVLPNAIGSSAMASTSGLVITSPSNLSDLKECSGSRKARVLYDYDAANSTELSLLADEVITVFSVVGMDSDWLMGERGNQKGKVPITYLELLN
UniProt Q15427: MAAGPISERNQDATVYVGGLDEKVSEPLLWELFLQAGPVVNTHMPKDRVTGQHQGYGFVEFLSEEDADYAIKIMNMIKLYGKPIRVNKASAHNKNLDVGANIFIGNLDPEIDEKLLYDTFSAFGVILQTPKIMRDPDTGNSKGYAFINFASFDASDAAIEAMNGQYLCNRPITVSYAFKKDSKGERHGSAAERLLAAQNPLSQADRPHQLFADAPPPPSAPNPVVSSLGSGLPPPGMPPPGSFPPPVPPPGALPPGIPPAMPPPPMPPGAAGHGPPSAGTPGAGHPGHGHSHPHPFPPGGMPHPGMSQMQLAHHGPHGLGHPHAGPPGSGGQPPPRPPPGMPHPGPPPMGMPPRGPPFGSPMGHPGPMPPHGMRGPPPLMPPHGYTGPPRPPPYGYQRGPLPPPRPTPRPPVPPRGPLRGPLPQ
UniProt Q9H299: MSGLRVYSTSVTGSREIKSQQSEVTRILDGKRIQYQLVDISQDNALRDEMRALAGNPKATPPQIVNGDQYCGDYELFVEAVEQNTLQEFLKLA
UniProt P50453: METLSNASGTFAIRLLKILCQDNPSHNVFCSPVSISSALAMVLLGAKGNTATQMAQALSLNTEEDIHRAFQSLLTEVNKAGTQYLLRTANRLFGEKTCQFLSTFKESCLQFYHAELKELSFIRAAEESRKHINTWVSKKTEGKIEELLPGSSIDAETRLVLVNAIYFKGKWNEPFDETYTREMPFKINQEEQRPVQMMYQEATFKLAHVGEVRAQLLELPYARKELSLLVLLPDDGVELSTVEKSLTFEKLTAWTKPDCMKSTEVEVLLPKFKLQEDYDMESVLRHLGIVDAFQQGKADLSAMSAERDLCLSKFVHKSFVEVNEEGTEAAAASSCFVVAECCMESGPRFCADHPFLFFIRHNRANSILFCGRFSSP

Key:
Assay in all cases: log2 fold change, soluble protein after heating vs DMSO (PISA); higher = thermal stabilisation; K562 lysate, 10 uM; active = over 0.2 and 3.5 SD of the protein, either way, in both replicates (recomputed)
erlotinib = compound: C#Cc1cccc(Nc2ncnc3cc(OCCOC)c(OCCOC)cc23)c1 [erlotinib]
Outline: (§1)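 Following dounce homogenisation of K562 pellets in PBS pH 7.4 with 1 mM MgCl2, crude extract at 1 mg/mL protein was incubated for 30 min with 10 μM compound. Aliquots were then heated for 3 min over 48°C-58°C and pooled, NP-40 was added to 0.5% at 4°C, and soluble protein was recovered as the supernatant at 21,000xg for 90 min. Channel-sum-equalised TMTpro 16plex LC-MS/MS quantified this protein. Each value, from duplicates, is a log-two fold change in thermal stability relative to solvent controls.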

[1] = compound: C/C(=N\NC(=O)C1=CC(=CC=C1)S(=O)(=O)N2CCOCC2)/C3=C(C=CC(=C3)Cl)O
Outline: as §1

[2] = compound: C1=CC(=CC=C1C2=NC3=C(N2)C=C(C=C3)C(=O)N)OC4=CC=C(C=C4)Cl
Outline: as §1

[3] = compound: C1=CC2=C(C=CC(=C2)/C=C\3/C(=O)NC(=NCC4=CC=CS4)S3)N=C1
Outline: as §1

[4] = compound: C1=CC2=NC=CN=C2C=C1/C=C/3\C(=O)NC(=O)S3
Outline: as §1

[5] = compound: C1=CC=C(C=C1)C2=NC(=C(N2)C3=CC=NC=C3)C4=CC(=C(C=C4)Cl)O
Outline: as §1

[6] = compound: C1=CC=C2C(=C1)C3=NNC4=CC=CC(=C43)C2=O
Outline: as §1

[7] = compound: C1CCN(C1)C(=O)NC2=CC=CC(=C2)NC3=NC=C(C(=N3)NCCC4=CN=CN4)Br
Outline: as §1

[8] = compound: C1CN(CCC1(CC2=CC=C(C=C2)Cl)N)C3=NC=NC4=C3C=CN4
Outline: as §1

IRAK-1-4 Inhibitor I = compound: C1COCCN1CCN2C3=CC=CC=C3N=C2NC(=O)C4=CC(=CC=C4)[N+](=O)[O-] [IRAK-1-4 Inhibitor I]
Outline: as §1

Measured: log2 fold change

SLC16A1 (UniProt P53985)
inactive: erlotinib -0.007 | [1] -0.038 | [2] 0.036 | [3] 0.029 | [4] -0.018 | [5] 0.034 | [6] 0.034 | [7] -0.024 | [8] 0.004 | IRAK-1-4 Inhibitor I 0.032

SERINC1 (UniProt Q9NRX5)
inactive: erlotinib 0.034 | [1] 0.072 | [2] -0.039 | [3] 0.074 | [4] -0.009 | [5] -0.057 | [6] 0.055 | [7] -0.001 | [8] -0.017 | IRAK-1-4 Inhibitor I 0.082

SGTA (UniProt O43765)
inactive: erlotinib -0.007 | [1] -0.038 | [2] 0.034 | [3] 0.004 | [4] -0.006 | [5] 0.019 | [6] 0.032 | [7] 0.03 | [8] 0.023 | IRAK-1-4 Inhibitor I -0.007

SH3BGRL (UniProt O75368)
inactive: erlotinib 0.01 | [1] 0.021 | [2] 0.03 | [3] 0.001 | [4] -0.028 | [5] 0.023 | [6] 0.015 | [7] -0.026 | [8] 0.012 | IRAK-1-4 Inhibitor I 0.016

SIRT5 (UniProt Q9NXA8)
inactive: erlotinib -0.022 | [1] 0.066 | [2] 0.017 | [3] 0.029 | [4] 0.004 | [5] -0.022 | [6] -0.036 | [7] 0.016 | [8] 0.026 | IRAK-1-4 Inhibitor I 0.023

SH3BGR (UniProt P55822)
inactive: erlotinib 0.03 | [1] -0.008 | [2] 0.04 | [3] -0.02 | [4] 0.011 | [5] -0.018 | [6] 0.029 | [7] 0.014 | [8] 0 | IRAK-1-4 Inhibitor I 0.027

SHCBP1 (UniProt Q8NEM2)
inactive: erlotinib 0.034 | [1] 0.01 | [2] -0.035 | [3] -0.023 | [4] 0.007 | [5] 0.032 | [6] 0.005 | [7] 0.014 | [8] -0.014 | IRAK-1-4 Inhibitor I 0.018

SF3B1 (UniProt O75533)
inactive: erlotinib -0.006 | [1] -0.05 | [2] -0.018 | [3] 0.022 | [4] -0.001 | [5] -0.013 | [6] -0.01 | [7] -0.009 | [8] 0.007 | IRAK-1-4 Inhibitor I -0.002

Two entries picked at random from the list so far:
SH3BGRL (UniProt O75368)
inactive: erlotinib 0.01 | [1] 0.021 | [2] 0.03 | [3] 0.001 | [4] -0.028 | [5] 0.023 | [6] 0.015 | [7] -0.026 | [8] 0.012 | IRAK-1-4 Inhibitor I 0.016

SHCBP1 (UniProt Q8NEM2)
inactive: erlotinib 0.034 | [1] 0.01 | [2] -0.035 | [3] -0.023 | [4] 0.007 | [5] 0.032 | [6] 0.005 | [7] 0.014 | [8] -0.014 | IRAK-1-4 Inhibitor I 0.018

(listing goes on)

SLAIN2 (UniProt Q9P270)
inactive: erlotinib 0.019 | [1] -0.002 | [2] 0.059 | [3] 0.01 | [4] -0.095 | [5] -0.003 | [6] 0 | [7] -0.027 | [8] 0.046 | IRAK-1-4 Inhibitor I 0.002

SIDT2 isoform 2 (UniProt Q8NBJ9)
inactive: erlotinib -0.014 | [1] 0.046 | [2] 0.047 | [3] 0.021 | [4] -0.048 | [5] 0 | [6] -0.035 | [7] 0.012 | [8] 0.026 | IRAK-1-4 Inhibitor I 0.061

SHC1 isoform 6 (UniProt P29353)
inactive: erlotinib 0.029 | [1] -0.024 | [2] 0.05 | [3] 0.035 | [4] 0.04 | [5] 0.011 | [6] -0.043 | [7] -0.005 | [8] 0.001 | IRAK-1-4 Inhibitor I 0.012

SIRT1 (UniProt Q96EB6)
inactive: erlotinib 0.046 | [1] -0.029 | [2] 0.017 | [3] 0.023 | [4] -0.019 | [5] 0 | [6] -0.001 | [7] -0.012 | [8] 0.008 | IRAK-1-4 Inhibitor I -0.018

SKA3 (UniProt Q8IX90)
inactive: erlotinib 0.018 | [1] -0.081 | [2] 0.02 | [3] -0.01 | [4] -0.052 | [5] -0.022 | [6] 0.001 | [7] -0.02 | [8] 0.042 | IRAK-1-4 Inhibitor I 0.013

SFXN4 (UniProt Q6P4A7)
inactive: erlotinib 0.01 | [1] 0.036 | [2] 0.064 | [3] 0.056 | [4] -0.045 | [5] -0.012 | [6] 0.075 | [7] -0.02 | [8] 0.05 | IRAK-1-4 Inhibitor I 0.033

SERINC3 (UniProt Q13530)
inactive: erlotinib 0.068 | [1] 0.145 | [2] 0.065 | [3] 0.073 | [4] 0.021 | [5] -0.02 | [6] -0.101 | [7] -0.03 | [8] 0.024 | IRAK-1-4 Inhibitor I 0.018

SIGMAR1 (UniProt Q99720)
inactive: erlotinib -0.02 | [1] -0.034 | [2] 0.022 | [3] 0.07 | [4] 0.003 | [5] 0.06 | [6] -0.02 | [7] 0.027 | [8] 0.022 | IRAK-1-4 Inhibitor I -0.002

SF3A2 (UniProt Q15428)
inactive: erlotinib 0.012 | [1] -0.105 | [2] -0.005 | [3] 0.011 | [4] -0.043 | [5] -0.032 | [6] 0.005 | [7] -0.014 | [8] -0.009 | IRAK-1-4 Inhibitor I 0.017

SFXN1 (UniProt Q9H9B4)
inactive: erlotinib 0.007 | [1] 0.034 | [2] -0.085 | [3] -0.024 | [4] 0.03 | [5] -0.027 | [6] 0.007 | [7] -0.005 | [8] 0 | IRAK-1-4 Inhibitor I -0.004

SF3B2 (UniProt Q13435)
inactive: erlotinib -0.01 | [1] -0.041 | [2] 0.025 | [3] -0.028 | [4] -0.011 | [5] -0.001 | [6] -0.048 | [7] -0.024 | [8] 0 | IRAK-1-4 Inhibitor I -0.003

SETD1A (UniProt O15047)
inactive: erlotinib 0.012 | [1] 0.024 | [2] 0.081 | [3] -0.043 | [4] 0.002 | [5] 0.021 | [6] 0.01 | [7] 0.018 | [8] 0 | IRAK-1-4 Inhibitor I 0.01

SETMAR (UniProt Q53H47)
inactive: erlotinib 0.066 | [1] 0.076 | [2] 0.068 | [3] -0.024 | [4] 0.005 | [5] -0.019 | [6] -0.075 | [7] -0.066 | [8] 0.008 | IRAK-1-4 Inhibitor I 0.005

SH3GLB1 isoform 2 (UniProt Q9Y371)
inactive: erlotinib 0.05 | [1] -0.001 | [2] 0.022 | [3] -0.025 | [4] -0.071 | [5] 0.002 | [6] 0.013 | [7] -0.028 | [8] -0.036 | IRAK-1-4 Inhibitor I -0.008

SF3B4 (UniProt Q15427)
inactive: erlotinib 0.048 | [1] -0.042 | [2] 0.031 | [3] 0.022 | [4] -0.017 | [5] -0.012 | [6] -0.04 | [7] -0.013 | [8] 0.049 | IRAK-1-4 Inhibitor I 0.016

SH3BGRL3 (UniProt Q9H299)
inactive: erlotinib -0.037 | [1] 0.013 | [2] -0.043 | [3] -0.019 | [4] 0.026 | [5] -0.018 | [6] 0.011 | [7] 0.048 | [8] 0.053 | IRAK-1-4 Inhibitor I 0

SLC1A5 (UniProt Q15758)
inactive: erlotinib -0.009 | [1] -0.013 | [2] 0.013 | [3] 0.002 | [4] -0.002 | [5] -0.012 | [6] 0.034 | [7] -0.001 | [8] 0.017 | IRAK-1-4 Inhibitor I 0.015

SERPINB9 (UniProt P50453)
inactive: erlotinib -0.013 | [1] 0.028 | [2] 0.025 | [3] -0.014 | [4] -0.017 | [5] -0.008 | [6] 0.01 | [7] 0.002 | [8] 0.002 | IRAK-1-4 Inhibitor I -0.013

SETDB1 (UniProt Q15047)
inactive: erlotinib -0.026 | [1] -0.039 | [2] 0.046 | [3] -0.004 | [4] -0.003 | [5] 0.017 | [6] -0.066 | [7] 0.007 | [8] 0.046 | IRAK-1-4 Inhibitor I 0.037

SF3A1 (UniProt Q15459)
inactive: erlotinib -0.027 | [1] 0.013 | [2] 0.023 | [3] 0.002 | [4] -0.025 | [5] 0 | [6] -0.015 | [7] 0.008 | [8] -0.001 | IRAK-1-4 Inhibitor I 0

SH3BP5L (UniProt Q7L8J4)
inactive: erlotinib 0.001 | [1] -0.156 | [2] 0.004 | [3] -0.058 | [4] -0.032 | [5] 0.003 | [6] 0.065 | [7] -0.019 | [8] 0 | IRAK-1-4 Inhibitor I 0

SFN (UniProt P31947)
inactive: erlotinib 0.013 | [1] -0.239 | [2] -0.006 | [3] -0.053 | [4] -0.002 | [5] -0.004 | [6] 0.025 | [7] 0.012 | [8] -0.064 | IRAK-1-4 Inhibitor I -0.03
